# Experimental data taken from PubChem BioAssay AID504582 (Broad Institute, 2011).
# About 2,300 (0.68%) of roughly 340,000 compounds were called active. This list was built around the results that the source calls inconclusive (neither active nor inactive); the mix of calls is not that of the screen. Cut-off read from the data, not from the text of the source: active = growth rescue above about 28% (passing the limit was not always enough); inconclusive = no clear call, values can overlap the other calls.
# Test: rescue of yeast from PfHsp40 toxicity, primary screen, S. cerevisiae, ATP luminescence (AID 504582);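 note: yeast W303a lacking pdr1 and pdr3 grown in galactose medium; growth measured after three days at 30 °C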
# Conditions: S. cerevisiae expressing PfHsp40, growth rescue, at 12.5 µM, active compounds read high
row,SMILES,growth rescue
1,CC(/C=N/NC(=O)Cc1cc(=O)[nH][nH]1)=C\c1ccccc1,inactive: 0.0455%
2,CCCCN(C(=O)c1ccco1)c1nnc(-c2cc(OC)c(OC)c(OC)c2)s1,inconclusive: 26.4%
3,COc1cccc(OC)c1C(=O)NC(C)C12CC3CC(CC(C3)C1)C2 (stereo not given),active: 83.9%
4,Cc1ccc(NS(=O)(=O)c2cccc3cccnc23)c(Cl)c1,inactive: -0.651%
5,CCOC(=O)c1[nH]c2ccccc2c1NC(=O)c1ccc(Br)o1,inconclusive: 28.6%
6,NC(=O)c1ccccc1NC(=O)COC(=O)C1(c2ccccc2)CC1,inactive: -1.15%
7,CSC1=N/C(=C\C=C\c2cccs2)C(=O)S1,inconclusive: 63.5%
8,CCOC(=O)C(C)(C)Oc1cccc2c1S(=O)(=O)c1ccccc1-2,inconclusive: 26.4%
9,CCn1c(SCC(=O)OC)nnc1-c1c[nH]c2ccccc12,inactive: 14.8%
10,CC1CCc2c(sc(NC(=O)c3ccco3)c2C(=O)O)C1 (stereo not given),inconclusive: 27%
11,CCCCCc1ccc(CC(=O)Nn2c(C)nc3ccccc3c2=O)cc1,inconclusive: 26.5%
12,CC(NC(=O)c1ccccc1F)c1cccc2ccccc12 (stereo not given),inconclusive: 70.1%
13,C#CCOCCOCCOCCNc1nc(N2CCOCC2)nc(N2CCN(C(=O)[C@H]([C@@H](C)CC)n3cc([C@@H](N)CO)nn3)CC2)n1,inconclusive: 27%
14,COc1ccc2c(c1)OC[C@H]1[C@H]2N2C(=O)c3cc(Cl)ccc3NC(=O)[C@@]2(C)[C@H]1c1ccccc1,inconclusive: 35.4%
15,Cc1cc(=O)oc2cc(OC(C)C(=O)NCCCn3ccnc3)ccc12 (stereo not given),active: 95.2%
16,C=CCn1c(-c2cc(-c3ccc(C)cc3)nc3ccccc23)n[nH]c1=S,active: 414%
17,CN(C)[C@@H]1C(=O)C(C(N)=O)=C(O)[C@@]2(O)C(=O)C3=C(O)c4c(O)cccc4[C@@](C)(O)C3[C@H](O)C12 (stereo not given in full),inconclusive: 49.7%
18,Cc1ccc(CN2C(=O)CCC2C(=O)NCC2CCCO2)cc1 (stereo not given),inconclusive: 68%
19,CCCCCCSc1ccc([C@H]2N[C@@](CC(C)C)(C(=O)OC)[C@H]3C(=O)N(C)C(=O)[C@@H]23)cc1,active: 46.6%
20,CCOC(=O)C1=C(COC(=O)c2ccc(OC)c(S(=O)(=O)N3CCOCC3)c2)NC(=O)NC1C (stereo not given),inactive: -1.94%
21,O=C(NCc1ccccn1)NC12CC3CC(CC(C3)C1)C2,inconclusive: 39.1%
22,Cn1cc(C(=O)OCC(=O)N2CCCCC2)c2ccccc21,inconclusive: 28.3%
23,CCCS(=O)(=O)c1c(S(=O)(=O)CCC)c2c(C)cccn2c1C(=O)N/N=C/c1cc(O)cc(O)c1,active: 452%

# Two records picked at random from those above:
row,SMILES,growth rescue
9,CCn1c(SCC(=O)OC)nnc1-c1c[nH]c2ccccc12,inactive: 14.8%
2,CCCCN(C(=O)c1ccco1)c1nnc(-c2cc(OC)c(OC)c(OC)c2)s1,inconclusive: 26.4%

# The listing continues.

row,SMILES,growth rescue
1,O=C(c1cc2c(s1)-c1ccccc1OC2)N1CCCC1,inconclusive: 46.6%
2,Nc1ccc(C=C2C=Cc3ccccc32)cc1,inconclusive: 33.2%
3,O=C1CS(=O)CN1c1ccc(Oc2ccccc2)cc1 (stereo not given),inconclusive: 47.8%
4,Cn1cc(CCNC(=O)c2ccc3nc(Cc4ccccc4F)oc3c2)cn1,inconclusive: 34.3%
5,CC(C)c1ccc2c(c1)C1(NN=C(c3ccccc3)S1)C(=O)N2 (stereo not given),active: 41.3%
6,COc1c(N2CCN(C(=S)NCc3ccccc3)C(C)C2)c(F)cc2c(=O)c(C(=O)O)cn(C3CC3)c12 (stereo not given),inconclusive: 33.8%
7,O=C1CC(c2ccco2)CC(O)=C1C=NCCN1CCNCC1 (stereo not given),inconclusive: 56.9%
8,COc1ccc(OC)c(NC(=O)Cn2c(CCC(=O)O)ccc2-c2ccc(C)cc2)c1,inconclusive: 33.8%
9,Cn1cc(/C=C/C(=O)N2CCCC(C(=O)c3ccc(C(F)(F)F)cc3)C2)cn1 (stereo not given),inconclusive: 26.4%
10,Cc1noc2ncnc(SCc3ccc(C(F)(F)F)cc3)c12,inconclusive: 70.3%
11,CCN(CC)CCn1nc2c3c(cccc3c1=O)-c1ccccc1-2,inconclusive: 28.7%
12,N#Cc1cc2cc3c(cc2nc1SCC(=O)N1CCCC1)OCCO3,inactive: -1.53%
13,O=C(c1ccccc1F)c1cn(Cc2ccc(F)cc2)c2ccccc12,inactive: 0.693%
14,CCOc1cc2[nH]c(=O)n(Cc3ccc(C(=O)NCCOC)cc3)c(=O)c2cc1OCC,inactive: -0.0625%
15,S=c1[nH]nc(-c2ccco2)n1/N=C/c1ccc(Br)s1,active: 152%
16,O=C(CCCCn1c(=O)c2ccccc2n(CC(=O)NC2CCCC2)c1=O)NC1CCCC1,inactive: -0.305%
17,Cc1ccccc1SCC(=O)NCCCn1ccnc1,inactive: 0.193%
18,COc1ccc(N(C)S(=O)(=O)c2ccc3c(c2)CCN3C(=O)C2CC2)c(OC)c1,inconclusive: 45.6%
19,O=C1Nc2ncccc2OC1CCCl (stereo not given),inconclusive: 28.8%
20,CC1=CC(=O)C=C(C)C1=NOS(=O)(=O)c1ccccc1,active: 335%
21,CCCCCCCCCCn1c2c(c(=N)c3c1CCC3)CCC2,active: 291%
22,CCN1CCN(c2ccc(S(=O)(=O)N3CCCCC3)cc2NC(=O)c2ccc([N+](=O)[O-])o2)CC1,inactive: -1.44%
